Assay results reported in paper PMC10163288.
The other results are listed elsewhere or left out.

B1: il2ra_site2_3nfp_normal_mot_HHH_b2_00444_000000178_0001_41_57_H_._HHH_b1_08207_0001_0001000029_0000001_0_af2pred_0001_af2pred (protein)
chain: SSSSDEELEVFALAVVIDLLEEYGLDDEQALRLSRLAWQLAEEGFSEEEIEEILRKVAEELSSSS
B2: il2ra_site1_3nfp_sap_14_mot_HHH_b1_07180_af2_000000260_0001_1_19_H_._HHH_b2_00258_0001_0000300036_0000001_0_0001 (protein)
chain: SSSSSEEADRIYELMRAMIEAQKRGDDELVEELLREVAELAEERGDERLLRQVQWALRALKSSSS
B3: il2ra_site1_2b5i_sap_15_mot_1dae16775e8f4074d71d019417416b97_0001_af2_000000275_0001_1_12_H_._HHH_b2_07869_0001_0000400013_0000001_1_0001_af2pred_0001_af2pred_1 (protein)
chain: SSSSTDVAREVFRLLEEADRLARNGNPEEAEKLLREAEELAEENGNRALLKFVRAALRALSSSSS
B4: il2ra_site2_3nfp_normal_mot_HHH_b1_05627_af2_000000038_0001_43_56_H_._HHH_b2_04930_0001_0000100001_0000001_0 (protein)
chain: SSSSSKAEEYLKVAVELLEELVEEGDEEAARRVTEVIELLAEALNDPELLEEARELLEELESSSS
B5: il2ra_site1_1z92_sap_21_mot_HHH_b1_01765_000000215_0001_19_35_H_._09051a5a5815e8c4a7a718313fa04930_0001_af2_0001_0000600053_0000001_0_0001_af2pred_0001_af2pred (protein)
chain: PEAAERDFERAREAGIPPEAVAKALLKSLRSEGIPPEEVEKIVREVLERLLGDPEEAEEVLERAS
B6: il2ra_site1_1z92_normal_mot_ems_4hM_4976_0002_000000023_0001_48_63_H_._e577cf9893892e11dfbc93bbc029d3b7_0001_0001_0000100007_0000001_0 (protein)
chain: PEERLRELAEELGIPPEELERALENLEREARIPPRNAKIFLKKILELVAEGNPAAEDMLEDLREN
B7: il2ra_site1_2b5i_sap_14_mot_ce5c0e0a9f20e077a206bde56d1879ec_0001_000000005_0001_35_49_H_._HHH_b1_04668_af2_0001_0000500013_0000001_1_0001_af2pred_0001_af2pred_ … (protein)
chain: SSSSSKELHELIRRANELAEKGDDEEAARLLEEAERIARELGSRAARKFIEAALRLLEEDRSSSS
B8: il2ra_site1_3nfp_normal_mot_HHH_b1_01417_af2_000000204_0001_1_19_H_._HHH_eva_0026_af2_0001_0000100002_0000001_0_af2pred_0001_af2pred (protein)
chain: SSDKEHRRLSRIVSKIAAELGLSVEVAKEALHLAFELLKQGISEEEAEKIVERWLEQAAEEQSSS
B9: il2ra_site1_3nfp_normal_mot_0eddeacbb14b769e73e254714f31e2f9_0001_af2_000000052_0001_37_51_H_._HHH_b2_02810_0002_0000200010_0000001_0 (protein)
chain: SSSSDEEVEREVERLLEEAKQIEDSREASKLLEEAWRIAAENKDQELADLIYRVMREIIKSSSSS
B10: il2ra_site2_3nfp_sap_17_mot_HHH_b2_03377_000000137_0001_25_41_H_._HHH_b2_03517_0001_0000700035_0000001_0_0001 (protein)
chain: DLSVRLLRAHALVLGDEELERVIELLAERIKEGDPEARELVLELMQLLMNGDPEEVERLAREILK
B11: il2ra_site2_2erj_sap_19_mot_HHH_b2_08364_000000146_0001_1_19_H_._HHH_b1_02871_0001_0000100001_0000001_0_0001_1 (protein)
chain: SSSSNEKLHELFRLAAELLELVHRGDEEQFEKVFRELEELIEELNSENAEEVLEWLRRHLHSSSS
B12: il2ra_site2_3nfp_normal_mot_HHH_b1_04338_af2_000000107_0001_41_56_H_._HHH_b1_05730_0001_0000100002_0000001_0 (protein)
chain: SSSSSSDVEDLAEALLRRLEKKNPELFEELERLLEELKEEGDPELQLELYAFIAEVLLSSSSSSS
B13: il2ra_site2_2erj_sap_23_mot_HHH_b2_01204_af2_000000051_0001_19_34_H_._HHH_b2_00676_0001_0000100004_0000001_1_0001 (protein)
chain: SSSSSTEEEIEELIRQAEELLRRGDPEEALKLISRAFELAYQLGDPELAARLIELAARIISSSSS
B14: il2ra_site2_2erj_normal_mot_HHH_b2_01353_af2_000000049_0001_23_39_H_._HHH_b1_04436_af2_0001_0000200013_0000001_0 (protein)
chain: SSSSDEIEELLEKAKELLEKGNPEEAEEVLRRASVAAFENRDHEAFAEIAELLRIVAELEASSSS
B15: il2ra_site2_3nfp_sap_16_mot_HHH_b1_07617_000000090_0001_22_38_H_._HHH_b2_07140_0001_0000300012_0000001_0_0001 (protein)
chain: SSSDLEERFEEIYREIEELLKEGDPWKVAQLLLELSKLALEIGDPELARRVLELYKKLKEISSSS
B16: il2ra_site2_3nfp_normal_mot_HHH_b1_00660_af2_000000090_0001_40_57_H_._ems_3hM_3525_af2_0001_0000400016_0000001_1_af2pred_0001_1_af2pred_swapped (protein)
chain: SSSAEEIRKIIAKLILIAAERRDHELFAFVVEVFLEVEELLQKGDEEEAKKVAEEAEEEVRKKSS
B17: il2ra_site2_3nfp_normal_mot_HHH_b2_07083_af2_000000083_0001_42_56_H_._936cac0bedbaeeb6fc45f7bbb6d160e8_0001_0001_0000100007_0000001_0 (protein)
chain: NLEVFELIRELRKRDEELAAALFAVVADLRFKGDPRLEELLREAIELIEEGNPEEAKRVLHEALR
B18: il2ra_site2_3nfp_sap_22_mot_HHH_b1_03745_000000053_0001_41_56_H_._HHH_b1_00387_af2_0001_0000100001_0000001_0_0001 (protein)
chain: SSSSSDEADELLIRAYEALLNGDPEKAEELLEQAEEKARELGDPHLLRQIEEALKTLKNGSSSSS
B19: il2ra_site1_1z92_sap_30_mot_38696baa2df05fb6b55d0053d3ac79c4_0001_1_af2_000000035_0001_34_48_H_._10e1666ff09cdf73719c8a1cce04dea0_0001_0001_0000200022_0000001_0 … (protein)
chain: SSSSNSEERVEFVLREARMARENGNPRAVEWALELAKSLARSRNDEELQKEVEELEKELLSSSSS

Molecular target: il2ra, P01589
Assay: yeast display titration

Apparent Kd, inactive:
B1 no binding seen
B2 no binding seen
B3 no binding seen
B4 > 7.01 µM
B5 no binding seen
B6 no binding seen
B7 no binding seen
B8 no binding seen
B9 no binding seen
B10 no binding seen
B11 no binding seen
B12 no binding seen
B13 no binding seen
B14 no binding seen
B15 no binding seen
B16 no binding seen
B17 no binding seen
B18 no binding seen
B19 no binding seen

Looked up one by one from the list above:
Apparent Kd, inactive:
B16 no binding seen
B15 no binding seen
